Results as given in patent US10463656B2, “Methods and compositions for prevention of feedlot bovine respiratory disease” (Iowa State University Research Foundation, Inc., priority 2017, dated 2019).

The chains behind the UniProt entries cited, without tags or fusion partners. Where a name states a change or a piece, a line headed by the entry shows the natural chain unless it says otherwise.
UniProt Q9TTY5: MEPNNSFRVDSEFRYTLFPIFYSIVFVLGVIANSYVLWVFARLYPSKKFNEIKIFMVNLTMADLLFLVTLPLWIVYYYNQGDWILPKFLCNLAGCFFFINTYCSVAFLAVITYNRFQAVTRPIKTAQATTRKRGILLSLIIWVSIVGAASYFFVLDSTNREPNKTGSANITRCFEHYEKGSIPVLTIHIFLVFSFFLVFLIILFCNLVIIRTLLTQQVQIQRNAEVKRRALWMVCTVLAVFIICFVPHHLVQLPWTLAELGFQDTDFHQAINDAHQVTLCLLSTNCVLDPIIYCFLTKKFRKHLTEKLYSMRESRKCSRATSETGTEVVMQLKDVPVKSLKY

Molecular target: T1, Bovine PAFR (Bos taurus, UniProt Q9TTY5)
T1 construct: expressed in transfected cells; host or cells: BHK cells, transient transfection with lipofectamine, pcDNA3.3-PAFR
Assay: PAF-mediated intracellular calcium accumulation in BHK cells transiently expressing bovine PAFR
Assay type: cell-based
Details: 10 nM PAF; antihistamine 1-100 nM; transfected BHK cells

SMILES: CN1CCC[C@@H]1CCO[C@](C)(c1ccccc1)c1ccc(Cl)cc1 [clemastine]
- block of bovine PAFR function by antihistamines, PAF-mediated intracellular calcium accumulation (FIG. 12): do not block
